Biological target: T1, human kappa opioid receptor (CHOhKOP) (Homo sapiens, UniProt P41145)
T1 construct: host or cells: CHO cells (CHOhKOP)
Assay: Calcium mobilization assay, CHOhKOP cells
Format: cell-based

Amino acid sequences for entries named in this document (tags omitted). A change or cut given only in a name is not applied to a line headed by its entry.
UniProt P41145: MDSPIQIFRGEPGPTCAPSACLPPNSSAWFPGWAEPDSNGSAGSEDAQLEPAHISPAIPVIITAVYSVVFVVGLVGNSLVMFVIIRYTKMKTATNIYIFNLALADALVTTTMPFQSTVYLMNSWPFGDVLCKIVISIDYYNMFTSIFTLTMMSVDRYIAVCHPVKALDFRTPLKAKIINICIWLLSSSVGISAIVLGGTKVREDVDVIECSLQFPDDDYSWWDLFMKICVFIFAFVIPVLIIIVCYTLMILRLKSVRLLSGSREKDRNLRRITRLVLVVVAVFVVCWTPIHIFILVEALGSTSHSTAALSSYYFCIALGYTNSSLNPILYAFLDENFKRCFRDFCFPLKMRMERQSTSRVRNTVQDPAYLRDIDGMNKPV

C[C@@H](NC(=O)[C@@H](N)Cc1ccc(O)cc1)C(=O)NCC(=O)N[C@@H](Cc1ccccc1)C(N)=O [HAGD, H-Tyr-D-AIa-GIy-Phe-NH2]
Emax: 2.95 ± 0.92%

Reference: article PMC9824695, “A Novel Multi-Target Mu/Delta Opioid Receptor Agonist, HAGD, Produced Potent Peripheral Antinociception with Limited Side Effects in Mice and Minimal Impact on Human Sperm Motility In Vitro” (Molecules, 2023)
